Holding throughout (assay): affinity purification with mass spectrometry
For test [1], the target named is MERS-CoV Nsp14 (MERS-CoV) (UniProt K9N7C7).
The target in test [2] is MERS-CoV Nsp7 (MERS-CoV) (UniProt K9N7C7).
In test [3] the target is MERS-CoV Nsp1 (MERS-CoV) (UniProt K9N7C7).

By UniProt entry, the sequences of proteins in these tests, tags left out. Residues count along the entry.
MERS-CoV Nsp1 (K9N7C7, residues 1-193): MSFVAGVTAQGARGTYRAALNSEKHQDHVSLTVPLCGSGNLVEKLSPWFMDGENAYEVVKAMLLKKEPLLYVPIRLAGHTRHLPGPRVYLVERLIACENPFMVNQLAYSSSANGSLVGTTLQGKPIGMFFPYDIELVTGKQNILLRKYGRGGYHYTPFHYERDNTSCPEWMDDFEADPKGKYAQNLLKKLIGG
MERS-CoV Nsp7 (K9N7C7, residues 3846-3928): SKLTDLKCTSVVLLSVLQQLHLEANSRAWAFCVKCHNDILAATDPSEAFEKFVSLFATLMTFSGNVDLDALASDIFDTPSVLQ
MERS-CoV Nsp14 (K9N7C7, residues 5909-6432): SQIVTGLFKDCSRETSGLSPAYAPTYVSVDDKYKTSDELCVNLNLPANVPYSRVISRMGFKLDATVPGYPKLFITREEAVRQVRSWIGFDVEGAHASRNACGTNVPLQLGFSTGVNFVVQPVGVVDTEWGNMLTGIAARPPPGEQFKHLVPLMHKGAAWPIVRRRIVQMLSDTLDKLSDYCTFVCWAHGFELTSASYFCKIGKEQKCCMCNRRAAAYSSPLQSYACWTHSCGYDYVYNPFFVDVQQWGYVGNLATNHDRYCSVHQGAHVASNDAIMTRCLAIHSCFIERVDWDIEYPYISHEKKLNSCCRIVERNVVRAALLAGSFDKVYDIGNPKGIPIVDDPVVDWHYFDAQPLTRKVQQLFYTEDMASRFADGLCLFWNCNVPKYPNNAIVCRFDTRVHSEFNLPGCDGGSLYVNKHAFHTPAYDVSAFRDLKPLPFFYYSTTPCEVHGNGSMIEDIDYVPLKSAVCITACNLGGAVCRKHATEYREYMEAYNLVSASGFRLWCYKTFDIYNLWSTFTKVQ
UniProt O95071: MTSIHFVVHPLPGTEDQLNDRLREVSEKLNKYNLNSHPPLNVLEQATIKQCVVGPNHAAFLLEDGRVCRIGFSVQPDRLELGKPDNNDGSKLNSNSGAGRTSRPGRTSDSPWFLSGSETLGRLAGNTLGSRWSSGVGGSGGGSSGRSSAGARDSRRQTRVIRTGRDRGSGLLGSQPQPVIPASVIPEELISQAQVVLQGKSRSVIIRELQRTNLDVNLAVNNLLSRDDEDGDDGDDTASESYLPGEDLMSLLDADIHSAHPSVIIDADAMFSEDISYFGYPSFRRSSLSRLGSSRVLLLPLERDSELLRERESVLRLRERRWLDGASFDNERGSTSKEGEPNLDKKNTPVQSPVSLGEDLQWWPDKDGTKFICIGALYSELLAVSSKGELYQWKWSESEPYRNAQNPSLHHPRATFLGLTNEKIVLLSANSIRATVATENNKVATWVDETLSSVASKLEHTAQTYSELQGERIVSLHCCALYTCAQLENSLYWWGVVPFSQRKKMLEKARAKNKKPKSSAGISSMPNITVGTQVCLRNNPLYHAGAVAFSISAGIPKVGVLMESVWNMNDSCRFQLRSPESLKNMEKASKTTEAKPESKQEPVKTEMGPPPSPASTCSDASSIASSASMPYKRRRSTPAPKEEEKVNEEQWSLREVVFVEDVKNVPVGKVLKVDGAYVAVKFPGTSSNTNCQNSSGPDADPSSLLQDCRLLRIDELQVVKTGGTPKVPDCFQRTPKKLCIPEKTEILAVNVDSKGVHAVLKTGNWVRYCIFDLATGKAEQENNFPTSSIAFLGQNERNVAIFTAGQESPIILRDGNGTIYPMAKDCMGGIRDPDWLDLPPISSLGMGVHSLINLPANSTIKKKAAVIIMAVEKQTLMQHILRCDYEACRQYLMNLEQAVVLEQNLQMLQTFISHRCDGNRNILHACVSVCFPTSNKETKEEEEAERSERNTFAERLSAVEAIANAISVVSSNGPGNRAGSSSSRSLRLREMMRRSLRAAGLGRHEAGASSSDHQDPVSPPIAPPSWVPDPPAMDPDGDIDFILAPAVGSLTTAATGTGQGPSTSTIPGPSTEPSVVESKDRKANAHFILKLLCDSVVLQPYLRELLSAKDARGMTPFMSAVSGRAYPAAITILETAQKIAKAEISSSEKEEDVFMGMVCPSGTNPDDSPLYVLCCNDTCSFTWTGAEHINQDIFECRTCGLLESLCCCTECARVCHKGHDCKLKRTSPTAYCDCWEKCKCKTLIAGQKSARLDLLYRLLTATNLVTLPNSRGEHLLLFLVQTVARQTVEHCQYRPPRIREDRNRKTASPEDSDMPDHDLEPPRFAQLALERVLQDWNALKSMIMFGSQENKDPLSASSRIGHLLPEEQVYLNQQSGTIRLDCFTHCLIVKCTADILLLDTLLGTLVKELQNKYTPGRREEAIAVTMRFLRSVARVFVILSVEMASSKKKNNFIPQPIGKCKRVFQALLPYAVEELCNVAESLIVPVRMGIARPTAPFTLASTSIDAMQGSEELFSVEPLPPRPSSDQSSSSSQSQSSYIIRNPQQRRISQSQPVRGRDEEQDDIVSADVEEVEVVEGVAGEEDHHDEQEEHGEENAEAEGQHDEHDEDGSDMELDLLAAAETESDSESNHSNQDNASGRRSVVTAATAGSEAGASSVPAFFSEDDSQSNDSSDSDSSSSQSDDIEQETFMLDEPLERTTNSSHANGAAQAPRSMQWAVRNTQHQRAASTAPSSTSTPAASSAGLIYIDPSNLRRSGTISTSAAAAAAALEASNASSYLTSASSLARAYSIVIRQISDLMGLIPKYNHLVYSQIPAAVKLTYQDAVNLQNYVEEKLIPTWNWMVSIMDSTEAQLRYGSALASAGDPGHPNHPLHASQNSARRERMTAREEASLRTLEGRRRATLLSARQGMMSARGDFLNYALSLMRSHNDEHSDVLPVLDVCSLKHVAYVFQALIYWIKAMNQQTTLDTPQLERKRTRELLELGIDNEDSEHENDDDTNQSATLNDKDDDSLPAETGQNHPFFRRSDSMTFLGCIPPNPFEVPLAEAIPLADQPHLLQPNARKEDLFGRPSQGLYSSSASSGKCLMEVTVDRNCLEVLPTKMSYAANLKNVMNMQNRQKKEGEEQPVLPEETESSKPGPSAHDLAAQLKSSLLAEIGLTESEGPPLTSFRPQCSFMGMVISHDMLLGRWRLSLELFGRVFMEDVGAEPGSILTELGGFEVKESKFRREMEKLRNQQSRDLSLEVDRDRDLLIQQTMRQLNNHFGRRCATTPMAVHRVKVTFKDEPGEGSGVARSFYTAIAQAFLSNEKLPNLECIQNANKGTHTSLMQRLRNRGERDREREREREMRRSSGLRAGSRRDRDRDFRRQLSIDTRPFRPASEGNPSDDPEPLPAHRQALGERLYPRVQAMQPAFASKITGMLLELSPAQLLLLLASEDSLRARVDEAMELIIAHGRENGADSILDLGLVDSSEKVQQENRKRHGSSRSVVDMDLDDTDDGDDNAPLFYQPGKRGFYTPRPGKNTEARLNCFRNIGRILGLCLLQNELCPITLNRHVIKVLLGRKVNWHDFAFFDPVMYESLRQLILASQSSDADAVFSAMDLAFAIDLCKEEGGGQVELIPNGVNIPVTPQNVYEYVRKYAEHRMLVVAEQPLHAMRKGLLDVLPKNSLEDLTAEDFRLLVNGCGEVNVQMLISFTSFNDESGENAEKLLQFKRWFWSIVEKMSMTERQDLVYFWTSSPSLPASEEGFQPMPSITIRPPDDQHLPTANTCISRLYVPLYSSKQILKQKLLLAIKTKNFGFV
UniProt Q9H7Z7: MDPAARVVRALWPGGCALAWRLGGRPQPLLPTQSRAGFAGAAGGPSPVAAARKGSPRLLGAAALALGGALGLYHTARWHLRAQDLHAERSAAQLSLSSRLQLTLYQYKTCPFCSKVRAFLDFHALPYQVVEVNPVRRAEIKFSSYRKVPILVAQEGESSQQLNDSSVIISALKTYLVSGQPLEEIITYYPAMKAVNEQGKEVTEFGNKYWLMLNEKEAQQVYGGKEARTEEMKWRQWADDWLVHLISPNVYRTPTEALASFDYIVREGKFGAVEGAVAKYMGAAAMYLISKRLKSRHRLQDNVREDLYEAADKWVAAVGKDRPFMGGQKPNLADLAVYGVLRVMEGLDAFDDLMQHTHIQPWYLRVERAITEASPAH
UniProt Q92878: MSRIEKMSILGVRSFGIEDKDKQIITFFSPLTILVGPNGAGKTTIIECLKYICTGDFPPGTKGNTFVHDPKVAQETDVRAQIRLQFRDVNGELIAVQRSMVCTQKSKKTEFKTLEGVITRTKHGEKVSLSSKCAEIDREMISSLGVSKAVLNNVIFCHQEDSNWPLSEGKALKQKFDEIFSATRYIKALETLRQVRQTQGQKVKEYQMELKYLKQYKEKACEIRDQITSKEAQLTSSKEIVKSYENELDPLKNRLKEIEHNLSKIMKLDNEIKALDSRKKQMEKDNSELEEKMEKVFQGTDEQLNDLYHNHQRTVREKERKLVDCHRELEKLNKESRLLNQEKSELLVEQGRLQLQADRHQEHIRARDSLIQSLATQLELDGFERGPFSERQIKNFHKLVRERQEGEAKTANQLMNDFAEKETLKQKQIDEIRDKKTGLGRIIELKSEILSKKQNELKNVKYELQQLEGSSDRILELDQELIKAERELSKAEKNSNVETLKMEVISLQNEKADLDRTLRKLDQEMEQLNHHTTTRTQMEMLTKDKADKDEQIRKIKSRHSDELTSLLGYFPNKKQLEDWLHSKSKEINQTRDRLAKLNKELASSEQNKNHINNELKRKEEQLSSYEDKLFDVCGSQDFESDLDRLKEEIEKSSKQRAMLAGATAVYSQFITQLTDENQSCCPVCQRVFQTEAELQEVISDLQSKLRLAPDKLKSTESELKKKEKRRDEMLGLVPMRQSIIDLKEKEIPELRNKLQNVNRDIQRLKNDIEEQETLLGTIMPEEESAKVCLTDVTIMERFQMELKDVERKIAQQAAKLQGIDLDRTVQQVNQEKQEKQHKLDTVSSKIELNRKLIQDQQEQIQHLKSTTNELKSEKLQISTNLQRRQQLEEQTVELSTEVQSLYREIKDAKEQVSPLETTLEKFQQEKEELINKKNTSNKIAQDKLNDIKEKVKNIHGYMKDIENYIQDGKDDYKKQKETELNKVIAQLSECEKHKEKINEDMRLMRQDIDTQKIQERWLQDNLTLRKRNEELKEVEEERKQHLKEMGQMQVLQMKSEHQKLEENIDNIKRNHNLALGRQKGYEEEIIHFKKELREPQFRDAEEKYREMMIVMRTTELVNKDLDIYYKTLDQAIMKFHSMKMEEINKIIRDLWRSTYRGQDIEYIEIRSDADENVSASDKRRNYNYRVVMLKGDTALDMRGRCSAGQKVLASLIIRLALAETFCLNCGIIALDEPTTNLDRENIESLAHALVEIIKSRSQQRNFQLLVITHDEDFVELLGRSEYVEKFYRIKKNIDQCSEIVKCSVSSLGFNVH
UniProt P40763: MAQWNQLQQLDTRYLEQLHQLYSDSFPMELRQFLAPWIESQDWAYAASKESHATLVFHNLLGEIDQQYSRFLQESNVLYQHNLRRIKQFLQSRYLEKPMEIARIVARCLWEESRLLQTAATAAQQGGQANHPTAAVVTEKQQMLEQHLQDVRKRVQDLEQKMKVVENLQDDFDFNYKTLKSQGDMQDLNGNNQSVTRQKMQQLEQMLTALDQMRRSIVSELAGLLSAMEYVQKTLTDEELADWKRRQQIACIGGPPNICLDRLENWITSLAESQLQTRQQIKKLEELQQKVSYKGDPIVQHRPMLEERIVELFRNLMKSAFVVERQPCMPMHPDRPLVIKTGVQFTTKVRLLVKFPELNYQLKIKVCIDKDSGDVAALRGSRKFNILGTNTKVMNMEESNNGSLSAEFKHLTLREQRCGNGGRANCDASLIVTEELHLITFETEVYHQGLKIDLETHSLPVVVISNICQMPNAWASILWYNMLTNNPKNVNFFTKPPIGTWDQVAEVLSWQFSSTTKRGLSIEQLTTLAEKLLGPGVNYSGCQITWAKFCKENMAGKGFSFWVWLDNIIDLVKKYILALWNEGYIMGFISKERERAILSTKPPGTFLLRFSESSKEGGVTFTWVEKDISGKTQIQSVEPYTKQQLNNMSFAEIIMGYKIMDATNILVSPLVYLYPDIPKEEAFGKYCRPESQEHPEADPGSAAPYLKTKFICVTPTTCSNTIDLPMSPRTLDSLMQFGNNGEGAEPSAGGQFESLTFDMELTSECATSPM

Results are given in words; binding and its absence hold for the method and conditions named. In cells and extracts the contact can be indirect. Here binding means that the protein was enriched with, or labelled near, the bait; the list need not be complete.

Turning to UBR5 (from UniProt O95071 1-2799), the binding entry in test [1] is given as “binds”.
As to “Prostaglandin E synthase 2 (PGES2) (from UniProt Q9H7Z7 1-377) (enzyme)”, the binding entry in test [2] is reported as “binds”.
Take “inosine 5′-monophosphate (IMP) dehydrogenase 2 (IMPDH2) (from UniProt P12268 1-514) (enzyme)”: the binding entry in test [1] is on record as “binds”.
The same measure, in the same setting: as for RAD50 (from UniProt Q92878 1-1312), the entry is “binds”.
Regarding Stat3 (from UniProt P40763 1-770), in test [3], the binding result is “binds”.

The values above are taken from article PMC7808408.
